Assay results reported in PMC8213057, “Targeting ALK2: An Open Science Approach to Developing Therapeutics for the Treatment of Diffuse Intrinsic Pontine Glioma” (Journal of Medicinal Chemistry, 2020).

The chains behind the UniProt entries cited, without tags or fusion partners. Where a name states a change or a piece, a line headed by the entry shows the natural chain unless it says otherwise. Residues count along the entry.
UniProt P53355: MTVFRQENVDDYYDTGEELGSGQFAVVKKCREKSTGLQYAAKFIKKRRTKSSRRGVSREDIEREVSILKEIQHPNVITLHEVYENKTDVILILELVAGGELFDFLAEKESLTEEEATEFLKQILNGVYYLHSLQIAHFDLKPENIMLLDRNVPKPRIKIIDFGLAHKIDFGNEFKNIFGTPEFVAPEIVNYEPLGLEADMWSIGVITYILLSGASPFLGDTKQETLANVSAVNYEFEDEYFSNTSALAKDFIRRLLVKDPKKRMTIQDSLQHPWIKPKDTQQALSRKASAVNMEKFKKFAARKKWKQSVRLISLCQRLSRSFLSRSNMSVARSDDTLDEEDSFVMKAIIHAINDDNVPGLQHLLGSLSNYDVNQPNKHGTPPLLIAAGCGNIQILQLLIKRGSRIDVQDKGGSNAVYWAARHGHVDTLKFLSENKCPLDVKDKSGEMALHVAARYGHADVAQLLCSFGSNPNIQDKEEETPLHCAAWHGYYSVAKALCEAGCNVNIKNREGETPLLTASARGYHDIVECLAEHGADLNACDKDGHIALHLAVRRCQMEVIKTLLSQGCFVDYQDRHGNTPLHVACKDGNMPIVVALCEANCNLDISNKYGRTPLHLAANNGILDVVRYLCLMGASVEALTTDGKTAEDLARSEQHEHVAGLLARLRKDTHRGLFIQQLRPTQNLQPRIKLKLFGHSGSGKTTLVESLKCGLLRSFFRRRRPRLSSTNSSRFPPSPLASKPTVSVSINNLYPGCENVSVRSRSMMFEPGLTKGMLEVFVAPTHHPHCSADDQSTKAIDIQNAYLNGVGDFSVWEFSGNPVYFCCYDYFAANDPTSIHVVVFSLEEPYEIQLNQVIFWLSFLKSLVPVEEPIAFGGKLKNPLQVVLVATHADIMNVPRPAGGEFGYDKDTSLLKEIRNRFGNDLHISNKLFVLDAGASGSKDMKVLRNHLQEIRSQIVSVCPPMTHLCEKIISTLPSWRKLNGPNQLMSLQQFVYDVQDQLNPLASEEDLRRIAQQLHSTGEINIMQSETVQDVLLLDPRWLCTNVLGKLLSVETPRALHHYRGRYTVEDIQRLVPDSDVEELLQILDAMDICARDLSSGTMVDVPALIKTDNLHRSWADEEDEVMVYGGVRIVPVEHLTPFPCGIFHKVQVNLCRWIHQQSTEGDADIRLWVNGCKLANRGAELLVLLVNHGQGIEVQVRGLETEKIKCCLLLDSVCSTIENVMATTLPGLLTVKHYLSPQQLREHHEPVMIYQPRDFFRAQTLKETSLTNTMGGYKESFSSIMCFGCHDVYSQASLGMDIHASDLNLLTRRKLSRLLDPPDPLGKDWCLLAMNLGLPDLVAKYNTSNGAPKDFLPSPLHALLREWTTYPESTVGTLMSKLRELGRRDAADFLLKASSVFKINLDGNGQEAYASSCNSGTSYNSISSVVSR
UniProt P07948: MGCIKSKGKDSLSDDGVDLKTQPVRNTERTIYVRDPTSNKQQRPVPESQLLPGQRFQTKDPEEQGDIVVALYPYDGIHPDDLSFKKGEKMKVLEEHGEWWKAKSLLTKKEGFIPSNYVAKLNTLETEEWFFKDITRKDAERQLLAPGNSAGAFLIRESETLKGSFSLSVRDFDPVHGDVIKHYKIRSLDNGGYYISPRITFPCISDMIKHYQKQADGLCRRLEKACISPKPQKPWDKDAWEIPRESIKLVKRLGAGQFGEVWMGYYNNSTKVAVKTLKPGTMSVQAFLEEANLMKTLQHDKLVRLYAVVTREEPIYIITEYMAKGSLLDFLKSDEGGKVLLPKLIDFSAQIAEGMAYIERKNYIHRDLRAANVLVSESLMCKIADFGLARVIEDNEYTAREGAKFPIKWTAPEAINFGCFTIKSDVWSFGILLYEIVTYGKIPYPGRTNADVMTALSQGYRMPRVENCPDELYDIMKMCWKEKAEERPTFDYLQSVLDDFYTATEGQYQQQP
UniProt Q16512: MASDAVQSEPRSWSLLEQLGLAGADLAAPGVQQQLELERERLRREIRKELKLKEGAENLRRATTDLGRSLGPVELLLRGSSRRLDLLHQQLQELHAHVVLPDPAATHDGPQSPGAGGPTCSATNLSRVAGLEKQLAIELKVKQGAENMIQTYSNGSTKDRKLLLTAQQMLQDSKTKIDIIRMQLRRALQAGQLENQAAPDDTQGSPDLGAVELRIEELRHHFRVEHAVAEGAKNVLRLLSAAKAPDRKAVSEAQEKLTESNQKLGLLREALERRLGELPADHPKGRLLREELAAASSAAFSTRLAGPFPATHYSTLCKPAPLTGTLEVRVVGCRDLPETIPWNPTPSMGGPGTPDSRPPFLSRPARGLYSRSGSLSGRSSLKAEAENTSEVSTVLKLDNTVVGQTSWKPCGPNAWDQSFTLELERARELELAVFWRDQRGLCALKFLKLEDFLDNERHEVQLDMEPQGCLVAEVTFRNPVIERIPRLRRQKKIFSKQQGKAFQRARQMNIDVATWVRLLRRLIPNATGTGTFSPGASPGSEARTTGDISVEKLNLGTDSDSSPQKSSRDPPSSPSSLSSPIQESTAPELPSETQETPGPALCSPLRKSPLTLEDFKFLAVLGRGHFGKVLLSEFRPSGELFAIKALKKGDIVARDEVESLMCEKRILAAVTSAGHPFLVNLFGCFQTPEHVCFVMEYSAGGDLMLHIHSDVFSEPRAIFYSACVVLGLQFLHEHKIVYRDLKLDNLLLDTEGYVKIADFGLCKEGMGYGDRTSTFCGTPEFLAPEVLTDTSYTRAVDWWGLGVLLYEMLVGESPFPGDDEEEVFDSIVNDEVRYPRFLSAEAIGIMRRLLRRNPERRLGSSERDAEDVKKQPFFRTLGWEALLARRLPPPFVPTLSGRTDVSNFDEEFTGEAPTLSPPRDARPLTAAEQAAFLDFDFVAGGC
UniProt Q15303, 26-1308: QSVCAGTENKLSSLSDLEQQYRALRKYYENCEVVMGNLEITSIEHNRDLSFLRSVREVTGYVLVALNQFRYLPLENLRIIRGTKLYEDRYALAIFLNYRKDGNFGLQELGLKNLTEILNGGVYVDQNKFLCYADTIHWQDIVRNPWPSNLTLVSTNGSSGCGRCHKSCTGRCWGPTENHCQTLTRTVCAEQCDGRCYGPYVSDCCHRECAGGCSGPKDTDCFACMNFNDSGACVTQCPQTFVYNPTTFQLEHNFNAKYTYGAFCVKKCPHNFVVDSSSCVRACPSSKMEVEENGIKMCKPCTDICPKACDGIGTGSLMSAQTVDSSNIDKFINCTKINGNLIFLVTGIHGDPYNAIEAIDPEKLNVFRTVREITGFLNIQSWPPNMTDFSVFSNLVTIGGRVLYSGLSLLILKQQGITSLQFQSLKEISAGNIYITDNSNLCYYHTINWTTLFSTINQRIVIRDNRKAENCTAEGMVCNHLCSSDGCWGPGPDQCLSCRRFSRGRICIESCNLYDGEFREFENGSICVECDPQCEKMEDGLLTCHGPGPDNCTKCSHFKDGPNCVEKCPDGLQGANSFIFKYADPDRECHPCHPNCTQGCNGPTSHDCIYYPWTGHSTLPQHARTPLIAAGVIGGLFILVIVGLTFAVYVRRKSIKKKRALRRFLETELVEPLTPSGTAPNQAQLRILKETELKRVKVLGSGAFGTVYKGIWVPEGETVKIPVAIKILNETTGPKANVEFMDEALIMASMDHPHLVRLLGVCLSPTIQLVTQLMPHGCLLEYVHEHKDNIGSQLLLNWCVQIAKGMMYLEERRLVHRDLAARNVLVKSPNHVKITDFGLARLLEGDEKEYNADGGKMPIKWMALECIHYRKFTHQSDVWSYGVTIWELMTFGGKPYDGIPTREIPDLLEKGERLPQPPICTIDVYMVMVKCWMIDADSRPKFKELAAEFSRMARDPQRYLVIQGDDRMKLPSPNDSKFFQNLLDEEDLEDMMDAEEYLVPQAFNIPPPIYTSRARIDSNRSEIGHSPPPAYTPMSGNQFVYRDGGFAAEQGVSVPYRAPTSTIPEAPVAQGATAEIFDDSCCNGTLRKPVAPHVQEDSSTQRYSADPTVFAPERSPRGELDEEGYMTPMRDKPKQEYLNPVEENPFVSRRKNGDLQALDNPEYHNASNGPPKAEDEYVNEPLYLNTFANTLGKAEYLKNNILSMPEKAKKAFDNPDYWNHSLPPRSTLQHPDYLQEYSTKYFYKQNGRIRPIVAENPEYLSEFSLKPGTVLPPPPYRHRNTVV
UniProt Q00526: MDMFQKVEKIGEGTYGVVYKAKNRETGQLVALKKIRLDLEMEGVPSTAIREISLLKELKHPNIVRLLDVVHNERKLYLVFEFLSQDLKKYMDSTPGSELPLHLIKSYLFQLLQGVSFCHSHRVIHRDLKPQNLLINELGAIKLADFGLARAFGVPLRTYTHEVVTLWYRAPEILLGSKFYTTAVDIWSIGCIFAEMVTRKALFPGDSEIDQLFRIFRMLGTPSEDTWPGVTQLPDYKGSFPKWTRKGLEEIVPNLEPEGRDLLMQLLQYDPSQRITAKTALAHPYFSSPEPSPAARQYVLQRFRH
UniProt Q99759: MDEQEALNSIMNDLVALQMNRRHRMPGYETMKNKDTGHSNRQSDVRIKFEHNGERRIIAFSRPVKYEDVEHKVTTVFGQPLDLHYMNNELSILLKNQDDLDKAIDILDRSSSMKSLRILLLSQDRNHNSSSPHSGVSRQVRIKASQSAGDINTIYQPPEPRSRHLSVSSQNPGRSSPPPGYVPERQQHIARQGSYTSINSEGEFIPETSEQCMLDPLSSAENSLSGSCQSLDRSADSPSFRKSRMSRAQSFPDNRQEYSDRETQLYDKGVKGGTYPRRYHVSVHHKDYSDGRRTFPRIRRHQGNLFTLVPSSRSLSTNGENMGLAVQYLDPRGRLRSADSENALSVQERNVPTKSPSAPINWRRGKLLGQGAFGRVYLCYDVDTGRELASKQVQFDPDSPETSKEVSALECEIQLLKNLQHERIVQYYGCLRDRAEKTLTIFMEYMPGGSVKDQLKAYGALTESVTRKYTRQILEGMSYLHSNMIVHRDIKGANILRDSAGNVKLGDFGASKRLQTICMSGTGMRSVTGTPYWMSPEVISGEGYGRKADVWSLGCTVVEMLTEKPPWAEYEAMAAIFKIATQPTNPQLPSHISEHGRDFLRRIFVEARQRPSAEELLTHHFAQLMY
UniProt O43781: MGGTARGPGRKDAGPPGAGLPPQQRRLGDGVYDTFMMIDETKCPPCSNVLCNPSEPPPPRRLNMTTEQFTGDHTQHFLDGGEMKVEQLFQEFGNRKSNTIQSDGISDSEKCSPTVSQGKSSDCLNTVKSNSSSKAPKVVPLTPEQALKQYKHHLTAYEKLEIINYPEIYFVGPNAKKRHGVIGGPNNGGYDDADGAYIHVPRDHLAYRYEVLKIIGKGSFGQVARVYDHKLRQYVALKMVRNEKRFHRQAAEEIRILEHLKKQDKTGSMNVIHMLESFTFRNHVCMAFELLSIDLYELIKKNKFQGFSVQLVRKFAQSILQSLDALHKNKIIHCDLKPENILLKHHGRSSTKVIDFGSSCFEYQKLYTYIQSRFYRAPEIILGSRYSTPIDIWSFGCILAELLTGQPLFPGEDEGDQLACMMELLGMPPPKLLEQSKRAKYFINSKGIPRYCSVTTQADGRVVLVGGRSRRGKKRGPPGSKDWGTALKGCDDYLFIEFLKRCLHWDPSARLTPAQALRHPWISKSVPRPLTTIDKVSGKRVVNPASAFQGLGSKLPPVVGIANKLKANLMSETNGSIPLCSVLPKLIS
UniProt P05771, 1-673 isoform P05771-2: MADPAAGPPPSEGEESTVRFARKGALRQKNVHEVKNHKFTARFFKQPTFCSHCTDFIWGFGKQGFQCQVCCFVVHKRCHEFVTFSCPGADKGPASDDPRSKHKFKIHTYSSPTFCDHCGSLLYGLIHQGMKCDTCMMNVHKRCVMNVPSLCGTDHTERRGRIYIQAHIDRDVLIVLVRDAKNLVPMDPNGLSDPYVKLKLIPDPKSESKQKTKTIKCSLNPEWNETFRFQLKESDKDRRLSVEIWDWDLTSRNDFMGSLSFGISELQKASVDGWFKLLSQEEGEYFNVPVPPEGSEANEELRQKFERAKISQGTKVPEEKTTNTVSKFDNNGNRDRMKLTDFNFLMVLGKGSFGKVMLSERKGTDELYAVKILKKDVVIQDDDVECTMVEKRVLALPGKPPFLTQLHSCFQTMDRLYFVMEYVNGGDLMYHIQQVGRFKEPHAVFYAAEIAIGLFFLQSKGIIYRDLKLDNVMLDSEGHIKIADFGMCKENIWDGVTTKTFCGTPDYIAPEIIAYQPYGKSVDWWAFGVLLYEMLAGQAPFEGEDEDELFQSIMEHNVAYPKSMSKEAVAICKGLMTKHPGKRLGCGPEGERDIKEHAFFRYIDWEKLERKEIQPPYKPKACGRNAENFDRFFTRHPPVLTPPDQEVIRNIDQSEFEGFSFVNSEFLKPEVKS

Legend:
DAPK1 = DAPK1 (Homo sapiens, UniProt P53355); settings: 1 μM; Run 1, Run 2
LYN = LYN (Homo sapiens, UniProt P07948); settings: 1 μM; Run 1, Run 2
AKT1 = AKT1 (Homo sapiens, UniProt P31749); settings: 1 μM; Run 1, Run 2
CDK2/cyclin E2 = CDK2/cyclin E2 (Homo sapiens, UniProt P24941); settings: 1 μM; Run 1, Run 2
MEK1 = MEK1 (Homo sapiens, UniProt Q02750); assay: biochemical; settings: read-out: % enzyme activity, 1 μM; Run 1, Run 2
GSK3b = GSK3b (Homo sapiens, UniProt P49841); settings: 1 μM; Run 1, Run 2
BRSK1 = BRSK1 (Homo sapiens, UniProt Q8TDC3); assay: biochemical; settings: read-out: % enzyme activity, 1 μM; Run 1, Run 2
CAMK2d = CAMK2d (Homo sapiens, UniProt Q13557); assay: biochemical; settings: read-out: % enzyme activity, 1 μM; Run 1, Run 2
STK21/CIT = STK21/CIT (Homo sapiens, UniProt O14578); settings: 1 μM; Run 1, Run 2
PKCnu/PRKD3 = PKCnu/PRKD3 (Homo sapiens, UniProt O94806); assay: biochemical; settings: read-out: % enzyme activity, 1 μM; Run 1, Run 2
CDK1/cyclin B = CDK1/cyclin B (Homo sapiens, UniProt P06493); assay: biochemical; settings: read-out: % enzyme activity, 1 μM; Run 1, Run 2
KSR2 = KSR2 (Homo sapiens, UniProt Q6VAB6); assay: biochemical; settings: read-out: % enzyme activity, 1 μM; Run 1, Run 2
PAK1 = PAK1 (Homo sapiens, UniProt Q13153); assay: biochemical; settings: read-out: % enzyme activity, 1 μM; Run 1, Run 2
RIPK5 = RIPK5 (Homo sapiens, UniProt Q6XUX3); settings: 1 μM; Run 1, Run 2
YSK4/MAP3K19 = YSK4/MAP3K19 (Homo sapiens, UniProt Q56UN5); assay: biochemical; settings: read-out: % enzyme activity, 1 μM; Run 1, Run 2
OSR1/OXSR1 = OSR1/OXSR1 (Homo sapiens, UniProt O95747); settings: 1 μM; Run 1, Run 2
PKCtheta = PKCtheta (Homo sapiens, UniProt Q04759); settings: 1 μM; Run 1, Run 2
PKN1/PRK1 = PKN1/PRK1 (Homo sapiens, UniProt Q16512); assay: biochemical; settings: read-out: % enzyme activity, 1 μM; Run 1, Run 2
TESK2 = TESK2 (Homo sapiens, UniProt Q96S53); settings: 1 μM; Run 1, Run 2
PEAK1 = PEAK1 (Homo sapiens, UniProt Q9H792); settings: 1 μM; Run 1, Run 2
PHKg1 = PHKg1 (Homo sapiens, UniProt Q16816); assay: biochemical; settings: read-out: % enzyme activity, 1 μM; Run 1, Run 2
MST4 = MST4 (Homo sapiens, UniProt Q9P289); assay: biochemical; settings: read-out: % enzyme activity, 1 μM; Run 1, Run 2
PBK/TOPK = PBK/TOPK (Homo sapiens, UniProt Q96KB5); settings: 1 μM; Run 1, Run 2
ALK = ALK (Homo sapiens, UniProt Q9UM73); assay: biochemical; settings: read-out: % enzyme activity, 1 μM; Run 1, Run 2
AXL = AXL (Homo sapiens, UniProt P30530); assay: biochemical; settings: read-out: % enzyme activity, 1 μM; Run 1, Run 2
COT1/MAP3K8 = COT1/MAP3K8 (Homo sapiens, UniProt P41279); assay: biochemical; settings: read-out: % enzyme activity, 1 μM; Run 1, Run 2
ERBB4/HER4 = ERBB4/HER4 (Homo sapiens, UniProt Q15303); settings: 1 μM; Run 1, Run 2
CDK3/cyclin E2 = CDK3/cyclin E2 (Homo sapiens, UniProt Q00526); settings: 1 μM; Run 1, Run 2
DMPK [1] = molecular target: T1, DMPK (Homo sapiens, UniProt Q09013); settings: 1 μM; Run 1, Run 2
MEKK3 = MEKK3 (Homo sapiens, UniProt Q99759); settings: 1 μM; Run 1, Run 2
DYRK3 = DYRK3 (Homo sapiens, UniProt O43781); settings: 1 μM; Run 1, Run 2
MEKK6 = MEKK6 (Homo sapiens, UniProt O95382); settings: 1 μM; Run 1, Run 2
SIK1 = SIK1 (Homo sapiens, UniProt P57059); settings: 1 μM; Run 1, Run 2
STK38L/NDR2 = STK38L/NDR2 (Homo sapiens, UniProt Q9Y2H1); assay: biochemical; settings: read-out: % enzyme activity, 1 μM; Run 1, Run 2
GRK7 = GRK7 (Homo sapiens, UniProt Q8WTQ7); assay: biochemical; settings: read-out: % enzyme activity, 1 μM; Run 1, Run 2
ERK5/MAPK7 = ERK5/MAPK7 (Homo sapiens, UniProt Q13164); settings: 1 μM; Run 1, Run 2
PKCb2 = PKCb2 (Homo sapiens, UniProt P05771); settings: 1 μM; Run 1, Run 2
P38b/MAPK11 = P38b/MAPK11 (Homo sapiens, UniProt Q15759); assay: biochemical; settings: read-out: % enzyme activity, 1 μM; Run 1, Run 2
SGK1 = SGK1 (Homo sapiens, UniProt O00141); settings: 1 μM; Run 1, Run 2
DMPK [2] = molecular target: T1, DMPK; assay: biochemical; settings: read-out: % enzyme activity, 1 μM; Run 1, Run 2
ULK2 = ULK2 (Homo sapiens, UniProt Q8IYT8); settings: 1 μM; Run 1, Run 2
BRSK2 = BRSK2 (Homo sapiens, UniProt Q8IWQ3); assay: biochemical; settings: read-out: % enzyme activity, 1 μM; Run 1, Run 2
ULK3 = ULK3 (Homo sapiens, UniProt Q6PHR2); assay: biochemical; settings: read-out: % enzyme activity, 1 μM; Run 1, Run 2

COc1cc(-c2cncc(-c3ccc(N4CCN(C(C)C)CC4)cc3)c2C)cc(F)c1C(N)=O [Compound 26b, 2-Fluoro-4-(5-(4-(4-isopropylpiperazin-1-yl)phenyl)-4-methylpyridin-3-yl)-6-methoxybenzamide]
% enzyme activity (DAPK1): 98.30%
% enzyme activity (LYN): 82.25%
% enzyme activity (AKT1): 99.01%
% enzyme activity (CDK2/cyclin E2): 104.46%
remaining activity at 1 µM (MEK1): 104%
% enzyme activity (GSK3b): 96.28%
remaining activity at 1 µM (BRSK1): 87.9%
remaining activity at 1 µM (CAMK2d): 93.6%
% enzyme activity (STK21/CIT): 99.05%
remaining activity at 1 µM (PKCnu/PRKD3): 142%
remaining activity at 1 µM (CDK1/cyclin B): 90.3%
remaining activity at 1 µM (KSR2): 97.2%
remaining activity at 1 µM (PAK1): 104%
% enzyme activity (RIPK5): 83.86%
remaining activity at 1 µM (YSK4/MAP3K19): 105%
% enzyme activity (OSR1/OXSR1): 95.05%
% enzyme activity (PKCtheta): 95.99%
remaining activity at 1 µM (PKN1/PRK1): 94.6%
% enzyme activity (TESK2): 93.23%
% enzyme activity (PEAK1): 110.20%
remaining activity at 1 µM (PHKg1): 96.7%
remaining activity at 1 µM (MST4): 90.7%
% enzyme activity (PBK/TOPK): 94.31%
remaining activity at 1 µM (ALK): 103%
remaining activity at 1 µM (AXL): 81.1%
remaining activity at 1 µM (COT1/MAP3K8): 93.4%
% enzyme activity (ERBB4/HER4): 100.25%
% enzyme activity (CDK3/cyclin E2): 84.43%
% enzyme activity (DMPK [1]): 110.69%
% enzyme activity (MEKK3): 92.94%
% enzyme activity (DYRK3): 92.56%
% enzyme activity (MEKK6): 89.86%
% enzyme activity (SIK1): 87.47%
remaining activity at 1 µM (STK38L/NDR2): 95.3%
remaining activity at 1 µM (GRK7): 101%
% enzyme activity (ERK5/MAPK7): 98.66%
% enzyme activity (PKCb2): 103.20%
remaining activity at 1 µM (P38b/MAPK11): 102%
% enzyme activity (SGK1): 90.95%
remaining activity at 1 µM (DMPK [2]): 112%
% enzyme activity (ULK2): 80.11%
remaining activity at 1 µM (BRSK2): 73.8%
remaining activity at 1 µM (ULK3): 94.5%
